Measurements from PubChem BioAssay AID2547 (National Center for Advancing Translational Sciences (NCATS), 2010).
The inconclusive results got no clear call from the source. A potency beside an inconclusive call is a rough fit, not a confirmed value.
Potency is read from the fitted curve at half-maximal effect.

Assay: Secondary Assay for Inhibitors of Human Galactokinase (GALK): HEK-293 Cell Viability Assay
Details: HEK-293 viability, ATP luminescence (CellTiter-Glo), 24/48 h; active = well fitted inhibition curve with a large enough effect; inconclusive = small, poorly fitted or top-dose-only effect; inactive = flat fitted curve, though single readings scatter
Procedure: NIH Molecular Libraries Probe Production Centers Network [MLPCN] NIH Chemical Genomics Center [NCGC] MLPCN Grant: R03 MH085689-01 Assay Submitter (PI): Kent Lai (University of Utah School of Medicine, 50 N Mario Capecchi Drive, Salt Lake City, UT 84132) NCGC Assay Overview Cytotoxicity of the active compounds in the GALK qHTS screen (AID 1868) was assessed using the CellTiter-Glo Luminescent Cell Viability Assay kit (Promega, USA) in the HEK-293 (ATCC) cell line. CellTiter-Glo measures the intracellular ATP present in metabolically active cells using Ultra-Glo as the luciferase to detect ATP levels. In brief, the luciferase in the buffer catalyzes the oxidation of luciferin to oxyluciferin and light which is dependent on ATP. […] Wells treated with various concentrations of cycloheximide (Sigma) and DMSO, and wells with media alone were used as positive and negative controls, respectively. […] [1] http://www.promega.com/tbs/tb288/tb288.pdf
NCGC Assay Protocol Summary: HEK-293 cells were grown in a flask up to 80% confluence. Cells were trypsinized, washed, and resuspended in MEM Eagle + 10% FBS + 1% pen-strep media at a concentration of 120 cells/uL. Five uL/well of cell solution was dispensed into a 1536-well assay plates (Greiner, solid white medium-binding plates) with Aurora Discovery BioRAPTR Flying Reagent Dispenser (FRD; Beckton-Dickenson). Cells were pre-incubated at 37 degree Celsius, 5% CO2 for four hours. Compound and control solutions (23nL) were then transferred to the assay plate using the Kalypsys 1536-pin tool. Assay plates were re- incubated at 37 degree Celsius, 5% CO2. After 24 or 48 hours, five uL of CellTiter Glo detection reagent was added. Luminescence signal was read with Perkin Elmer ViewLux plate reader after 30 min room temperature incubation.
For CCn1nc(-c2cccs2)nc2c(=O)n(C)c(=O)nc1-2, the Potency was inconclusive: 3.53 µM [falling, full curve].
In the case of COCCCn1c(N)c(C(=O)NCc2ccco2)c2nc3ccccc3nc21, the Potency is reported as inconclusive: 35.3 µM [falling, single point].
In the case of O=c1c(O)c(-c2ccc(O)c(O)c2)oc2cc(O)cc(O)c12, the Potency is reported as inconclusive: 14.1 µM [falling, partial curve, poor fit].
In the case of CCn1nc(-c2ccccc2)nc2c(=O)n(C)c(=O)nc1-2, the Potency is reported as inconclusive: 11.2 µM [falling, partial curve].
